Measurements reported in PubChem BioAssay AID504764 (Drosophila RNAi Screening Center, 2011)
Purpose: 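Knock-downs that raise or lower a Notch target reporter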 (primary screen). Cell system: Drosophila Kc167 cells. Reagent: long dsRNA against Drosophila genes. Timing: about 5 days (4 days dsRNA, then 24 h after transfection). Conditions: transfection of constitutively active membrane-tethered Notch lacking the extracellular domain, read 24 h later. Measurement: 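Light from a Notch-responsive E(spl)m3 luciferase reporter under active Notch, with control-promoter and no-Notch reporter wells to normalise; raw counts from paired wells a and b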. Reading the numbers: induced reporter light, run 1, well a and induced reporter light, run 1, well b: higher = more light from the Notch target reporter with active Notch; control promoter light, run 1, well a and control promoter light, run 1, well b: higher = more light from the viral control promoter (cell number, transfection, viability); uninduced reporter light, run 1, well a: higher = more light from the Notch target reporter without active Notch. Call rule: 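Wells with low control signal or poorly matching duplicates excluded; duplicates averaged; per source plate, z beyond ±2 for induced/control log2 ratio or beyond ±1.8 for induced/uninduced marks a hit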. Meaning of the calls: active = modifier hit (raised or lowered Notch signal); inactive = not a hit.
In all, the deposit lists about 22,000 reagents; below is an unselected part of those with a known target gene and a result. Of all reagents, 403 (1.9%) were called active. 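Unnormalised raw counts per well; ratio z-scores behind the hit calls and whether each hit raises or lowers signal are not deposited.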 A plus sign joins genes that one reagent is predicted to hit. Reagent sequences are not shown. Not stated in the record: the amount of reagent.

CG6834 [DRSC16125] — induced reporter light, run 1, well a: 30825; induced reporter light, run 1, well b: 31250; control promoter light, run 1, well a: 64240; control promoter light, run 1, well b: 41035; uninduced reporter light, run 1, well a: 3660; Call: inactive
CG31523 [DRSC12009] — induced reporter light, run 1, well a: 1.76e5; induced reporter light, run 1, well b: 1.91e5; control promoter light, run 1, well a: 2.36e5; control promoter light, run 1, well b: 1.93e5; uninduced reporter light, run 1, well a: 15760; Call: inactive
CG31523 [DRSC12337] — induced reporter light, run 1, well a: 1.24e5; induced reporter light, run 1, well b: 1.25e5; control promoter light, run 1, well a: 1.13e5; control promoter light, run 1, well b: 1.15e5; uninduced reporter light, run 1, well a: 8365; Call: inactive
CG10139 [DRSC05972] — induced reporter light, run 1, well a: 1.64e5; induced reporter light, run 1, well b: 1.80e5; control promoter light, run 1, well a: 1.79e5; control promoter light, run 1, well b: 1.62e5; uninduced reporter light, run 1, well a: 14995; Call: inactive
CG14105 [DRSC10107] — induced reporter light, run 1, well a: 1.68e5; induced reporter light, run 1, well b: 1.43e5; control promoter light, run 1, well a: 2.19e5; control promoter light, run 1, well b: 1.94e5; uninduced reporter light, run 1, well a: 10150; Call: inactive
Hakai [DRSC02031] — induced reporter light, run 1, well a: 2.62e5; induced reporter light, run 1, well b: 2.34e5; control promoter light, run 1, well a: 2.15e5; control promoter light, run 1, well b: 2.18e5; uninduced reporter light, run 1, well a: 18225; Call: inactive
CG8180 [DRSC07092] — induced reporter light, run 1, well a: 56085; induced reporter light, run 1, well b: 64185; control promoter light, run 1, well a: 85665; control promoter light, run 1, well b: 1.03e5; uninduced reporter light, run 1, well a: 5850; Call: inactive
CG8180 [DRSC07093] — induced reporter light, run 1, well a: 86060; induced reporter light, run 1, well b: 77625; control promoter light, run 1, well a: 54815; control promoter light, run 1, well b: 42670; uninduced reporter light, run 1, well a: 8155; Call: inactive
moi + Tgs1 [DRSC16371] — induced reporter light, run 1, well a: 1.48e5; induced reporter light, run 1, well b: 1.31e5; control promoter light, run 1, well a: 1.82e5; control promoter light, run 1, well b: 2.04e5; uninduced reporter light, run 1, well a: 11290; Call: inactive
CG1688 [DRSC05934] — induced reporter light, run 1, well a: 78975; induced reporter light, run 1, well b: 91855; control promoter light, run 1, well a: 42750; control promoter light, run 1, well b: 54725; uninduced reporter light, run 1, well a: 13385; Call: inactive
CG10445 [DRSC14247] — induced reporter light, run 1, well a: 1.10e5; induced reporter light, run 1, well b: 79700; control promoter light, run 1, well a: 86440; control promoter light, run 1, well b: 71775; uninduced reporter light, run 1, well a: 7830; Call: inactive

A few values from the entries so far:
CG10445 [DRSC14247], induced reporter light, run 1, well b = 79700
For “induced reporter light, run 1, well b”, CG14105 [DRSC10107] reads 1.43e5

Next records follow.
fray (frayed) [DRSC16950] — induced reporter light, run 1, well a: 1.60e5; induced reporter light, run 1, well b: 1.59e5; control promoter light, run 1, well a: 1.89e5; control promoter light, run 1, well b: 1.76e5; uninduced reporter light, run 1, well a: 13555; Call: inactive
Lam (Lamin) [DRSC03359] — induced reporter light, run 1, well a: 73965; induced reporter light, run 1, well b: 75295; control promoter light, run 1, well a: 73095; control promoter light, run 1, well b: 74870; uninduced reporter light, run 1, well a: 4080; Call: inactive
JMJD6 (Jumonji domain containing 6) [DRSC15787] — induced reporter light, run 1, well a: 1.83e5; induced reporter light, run 1, well b: 2.50e5; control promoter light, run 1, well a: 2.49e5; control promoter light, run 1, well b: 2.58e5; uninduced reporter light, run 1, well a: 14992; Call: inactive
CG31344 [DRSC16069] — induced reporter light, run 1, well a: 2.21e5; induced reporter light, run 1, well b: 2.36e5; control promoter light, run 1, well a: 2.12e5; control promoter light, run 1, well b: 2.32e5; uninduced reporter light, run 1, well a: 20275; Call: inactive
CG34054 [DRSC05277] — induced reporter light, run 1, well a: 2.04e5; induced reporter light, run 1, well b: 1.95e5; control promoter light, run 1, well a: 3.02e5; control promoter light, run 1, well b: 3.07e5; uninduced reporter light, run 1, well a: 21250; Call: inactive
AGO1 (Argonaute-1) [DRSC05912] — induced reporter light, run 1, well a: 1.12e5; induced reporter light, run 1, well b: 1.12e5; control promoter light, run 1, well a: 1.60e5; control promoter light, run 1, well b: 1.34e5; uninduced reporter light, run 1, well a: 9465; Call: inactive
CG6602 [DRSC10673] — induced reporter light, run 1, well a: 2.21e5; induced reporter light, run 1, well b: 1.62e5; control promoter light, run 1, well a: 1.71e5; control promoter light, run 1, well b: 1.57e5; uninduced reporter light, run 1, well a: 7320; Call: inactive
